Reference: PubChem BioAssay AID743467 (Broad Institute, 2014)
Inconclusive results, whose numbers are uncertain, are shown with a selection of clear calls. Calls of active or inactive are those of the source.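 Rule for the calls: active = compound lowering PGC-1a expression with fitted half-maximal concentration at most twice its top tested dose; inconclusive = flat curve with moderate opposite-direction effect, or poor fit; inactive = the rest.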

Assay: hepatocyte PGC-1a gene expression decrease – cell-based, primary mouse hepatocytes, RT-qPCR, cherry-pick, PGC-1a acetylation activator project, dose response (AID 743467);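 note: 0% = neutral control wells median and 100% = positive control wells median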
Conditions: PGC-1a mRNA qPCR, forskolin, active compounds read high; at 26 µM, top dose 26 µM unless noted

Row | Structure (SMILES) | max activity (PGC-1a expression decrease)
1 | COc1ccc(-c2cc(-c3ccccc3O)[nH]n2)cc1OC | inactive: 31.3% [at 0.1 µM, top dose 26 µM]
2 | COc1cc(C)c(CN2CCN(S(=O)(=O)c3ccc(Cl)s3)CC2)cc1OC | inconclusive: 173%
3 | CC(=O)c1cccc(N(C(=O)c2cnccn2)C(C(=O)NCc2ccccc2)c2ccco2)c1 (stereo not given) | inactive: 188%
4 | Cc1ccc(S(=O)(=O)Nc2ccc3c(c2)C(=O)N([C@@H](C)CO)C[C@@H](C)[C@H](CN(C)C(=O)Nc2cccc4ccccc24)OCCCC[C@H](C)O3)cc1 | inconclusive: 118%
5 | CCOC(=O)C1(Cc2ccccc2)CCN(Cc2cccc(OC)c2O)CC1 | inconclusive: 129% [at 2.85 µM, top dose 26 µM]
6 | COc1cc(NC(=O)c2cccs2)c(OC)cc1NC(=O)CCC(=O)Nc1ccc2ncccc2c1 | inconclusive: 102% [at 8 µM, top dose 26 µM]
7 | O=C(Cn1c(CN2CCCCC2)nc2ccccc2c1=O)Nc1ccccc1 | inactive: 95%
8 | CC1=C(C(N)=O)C(c2cccnc2)n2nc(-c3cccc(Cl)c3)nc2N1 (stereo not given) | inactive: 91.1% [at 0.9 µM, top dose 26 µM]
9 | O=C(c1ccco1)N1CCN(c2nnc(-c3ccccc3)c3ccccc23)CC1 | inconclusive: 82.8%
10 | C[C@@H]1CN([C@@H](C)CO)C(=O)c2c(c3ccccc3n2C)-c2ccccc2CO[C@@H]1CN(C)C(=O)Nc1ccc2c(c1)OCO2 | inactive: 34.2% [at 23.5 µM]
11 | Cc1ccc(S(=O)(=O)N(Cc2ccc(F)cc2)Cc2ccco2)cc1 | inconclusive: 105%
12 | C[C@@H]1CN([C@H](C)CO)C(=O)c2c(c3ccccc3n2C)-c2ccccc2CO[C@@H]1CN(C)C(=O)Nc1ccc2c(c1)OCO2 | inconclusive: 99.8%
13 | Cc1ccc2oc(-c3ccc(NC(=O)c4cccnc4)cc3)nc2c1 | inactive: 82.7% [at 0.0012 µM, top dose 26 µM]
14 | C[C@@H]1CN([C@H](C)CO)C(=O)c2c(c3ccccc3n2C)-c2ccccc2CO[C@@H]1CN(C)C(=O)c1ccc(F)cc1 | inactive: 109% [at 23.5 µM]
15 | O=C(Nc1ccc(-c2noc(-c3cccs3)n2)cc1)c1cccnc1 | inconclusive: 161% [at 0.0038 µM, top dose 26 µM]
16 | COC(=O)C(Nc1ccccc1Cl)(c1cc(C)c(O)c(C)c1)C(F)(F)F (stereo not given) | inconclusive: 111% [at 0.0012 µM, top dose 26 µM]
17 | COc1ccc(CN(CCC(C)C)S(=O)(=O)c2ccccc2Br)cc1 | inactive: 99.4%
18 | CC(C)CCNc1nc(N2CCCC2)c2c(c1C#N)CCN(C)C2 | inactive: 56.4%
19 | O=C(NCc1cccs1)c1ccc(Cl)c(S(=O)(=O)N2CCCC2)c1 | inconclusive: 123% [at 0.035 µM, top dose 26 µM]
20 | CC1(Cc2ccc(Cl)cc2)C(=O)Nc2c(Cl)ccc(Cl)c21 (stereo not given) | inconclusive: 113% [at 0.1 µM, top dose 26 µM]
21 | Cc1noc(C)c1S(=O)(=O)Nc1ccc2c(c1)C(=O)N([C@@H](C)CO)C[C@@H](C)[C@@H](CN(C)Cc1ccc3c(c1)OCO3)OCCCC[C@@H](C)O2 | inconclusive: 198%
22 | Cc1nc(N2CCN(S(=O)(=O)c3ccc(F)cc3)CC2)c2c(-c3cccs3)csc2n1 | inactive: 176%
23 | C[C@@H]1CN([C@@H](C)CO)C(=O)c2c(c3ccccc3n2C)-c2ccccc2CO[C@@H]1CN(C)C(=O)c1ccc(F)cc1 | inactive: 207%
24 | COC(=O)[C@H](Cc1ccccc1)N(C)S(=O)(=O)c1cccc(S(=O)(=O)N(C)[C@@H](Cc2ccccc2)C(=O)OC)c1 | inconclusive: 115% [at 0.0038 µM, top dose 26 µM]
25 | COc1ccc(CCNC(=O)c2cc(-c3ccco3)on2)cc1OC | inconclusive: 130% [at 0.011 µM, top dose 26 µM]

Two compounds picked at random from the list so far:
Row | Structure (SMILES) | max activity (PGC-1a expression decrease)
24 | COC(=O)[C@H](Cc1ccccc1)N(C)S(=O)(=O)c1cccc(S(=O)(=O)N(C)[C@@H](Cc2ccccc2)C(=O)OC)c1 | inconclusive: 115% [at 0.0038 µM, top dose 26 µM]
13 | Cc1ccc2oc(-c3ccc(NC(=O)c4cccnc4)cc3)nc2c1 | inactive: 82.7% [at 0.0012 µM, top dose 26 µM]
